Measurements reported in PubChem BioAssay AID493246 (Drosophila RNAi Screening Center, 2011).
The screen tested about 21,000 reagents; this is an unselected part of those with a known target gene and a result. In the full data, 429 (2%) are marked active. 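Values are raw and not normalised between plates; calls rest on per-plate z-scores that were not deposited.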 Reagents against one gene are numbered here. Names joined by + are all predicted targets of the reagent. Not stated in the record: the amount of reagent, the time to read-out.

- Test: 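Genes fly cells need to grow and stay alive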 (primary screen)
- System: Drosophila Kc and S2R+ cells
- Reagent: long dsRNA against Drosophila genes
- Measured: 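Cell number per well after knock-down, printed as raw plate values; calls were based on per-plate z-scores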
- Scale: Kc cell number and S2R+ cell number: higher = more cells remaining
- Active means: 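Counted as a hit if cell number falls by a z-score of at least 3 within its plate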

CG40341 (retired record) #1 showed Kc cell number, rep 1 = 5.09e5; S2R+ cell number, rep 1 = 8.26e5; inactive.
Silencing of CG40341 (retired record) #2 gave: Kc cell number, rep 1 = 5.14e5; S2R+ cell number, rep 1 = 8.30e5; inactive.
CG18281 scored Kc cell number, rep 1 = 1.60e6; Kc cell number, rep 2 = 1.64e6; S2R+ cell number, rep 1 = 1.30e6; S2R+ cell number, rep 2 = 1.40e6; inactive.
Against CG14684, the values are Kc cell number, rep 1 = 1.48e6; Kc cell number, rep 2 = 1.47e6; S2R+ cell number, rep 1 = 1.25e6; S2R+ cell number, rep 2 = 1.31e6; inactive.
Atg7 #1 showed Kc cell number, rep 1 = 5.28e5; S2R+ cell number, rep 1 = 7.36e5; inactive.
After knock-down of Atg7 #2, the screen gave Kc cell number, rep 1 = 1.50e6; Kc cell number, rep 2 = 1.56e6; S2R+ cell number, rep 1 = 1.25e6; S2R+ cell number, rep 2 = 1.37e6; inactive.
SCAR showed Kc cell number, rep 1 = 1.41e6; Kc cell number, rep 2 = 1.50e6; S2R+ cell number, rep 1 = 1.12e6; S2R+ cell number, rep 2 = 1.25e6; inactive.
With knock-down of crol, the record shows Kc cell number, rep 1 = 1.39e6; Kc cell number, rep 2 = 1.47e6; S2R+ cell number, rep 1 = 1.07e6; S2R+ cell number, rep 2 = 1.15e6; inactive.
With knock-down of LanA, the record shows Kc cell number, rep 1 = 1.30e6; Kc cell number, rep 2 = 1.38e6; S2R+ cell number, rep 1 = 1.20e6; S2R+ cell number, rep 2 = 1.17e6; inactive.
For CG4115, the entry reads Kc cell number, rep 1 = 1.61e6; Kc cell number, rep 2 = 1.53e6; S2R+ cell number, rep 1 = 1.27e6; S2R+ cell number, rep 2 = 1.30e6; inactive.

3 consecutive records from above:
CG40341 (retired record) #2 → Kc cell number, rep 1: 5.14e5; S2R+ cell number, rep 1: 8.30e5; Outcome: inactive
CG18281 → Kc cell number, rep 1: 1.60e6; Kc cell number, rep 2: 1.64e6; S2R+ cell number, rep 1: 1.30e6; S2R+ cell number, rep 2: 1.40e6; Outcome: inactive
CG14684 → Kc cell number, rep 1: 1.48e6; Kc cell number, rep 2: 1.47e6; S2R+ cell number, rep 1: 1.25e6; S2R+ cell number, rep 2: 1.31e6; Outcome: inactive

Additional reagents follow:
With knock-down of Gpo1, the record shows Kc cell number, rep 1 = 1.37e6; Kc cell number, rep 2 = 1.41e6; S2R+ cell number, rep 1 = 1.10e6; S2R+ cell number, rep 2 = 1.16e6; inactive.
CG33229 gave Kc cell number, rep 1 = 1.54e6; Kc cell number, rep 2 = 1.66e6; S2R+ cell number, rep 1 = 9.36e5; S2R+ cell number, rep 2 = 1.11e6; inactive.
For Skp2 the deposit lists Kc cell number, rep 1 = 1.75e6; Kc cell number, rep 2 = 1.83e6; S2R+ cell number, rep 1 = 1.54e6; S2R+ cell number, rep 2 = 1.62e6; inactive.
Against CG9641, the values are Kc cell number, rep 1 = 1.38e6; Kc cell number, rep 2 = 1.38e6; S2R+ cell number, rep 1 = 1.02e6; S2R+ cell number, rep 2 = 1.15e6; inactive.
Depletion of mAChR-B came out at: Kc cell number, rep 1 = 1.51e6; Kc cell number, rep 2 = 1.55e6; S2R+ cell number, rep 1 = 1.25e6; S2R+ cell number, rep 2 = 1.39e6; inactive.
Against CG34005 the deposit lists Kc cell number, rep 1 = 5.45e5; S2R+ cell number, rep 1 = 7.97e5; inactive.
Depletion of CG7120 came out at: Kc cell number, rep 1 = 1.54e6; Kc cell number, rep 2 = 1.47e6; S2R+ cell number, rep 1 = 1.23e6; S2R+ cell number, rep 2 = 1.27e6; inactive.
With knock-down of drn, the screen gave Kc cell number, rep 1 = 1.56e6; Kc cell number, rep 2 = 1.49e6; S2R+ cell number, rep 1 = 1.29e6; S2R+ cell number, rep 2 = 1.50e6; inactive.
Silencing of Elo68beta resulted in: Kc cell number, rep 1 = 1.47e6; Kc cell number, rep 2 = 1.53e6; S2R+ cell number, rep 1 = 1.38e6; S2R+ cell number, rep 2 = 1.53e6; inactive.
CG13921 showed Kc cell number, rep 1 = 1.46e6; Kc cell number, rep 2 = 1.40e6; S2R+ cell number, rep 1 = 1.15e6; S2R+ cell number, rep 2 = 1.16e6; inactive.
For CG6937 + btn, the values are Kc cell number, rep 1 = 1.73e6; Kc cell number, rep 2 = 1.56e6; S2R+ cell number, rep 1 = 9.94e5; S2R+ cell number, rep 2 = 1.09e6; inactive.
